# Data published in patent US7556828B2, “Pharmaceutical composition for treatment of BPH and preparation thereof” (priority 2003, dated 2009).
# At least one structure is not confirmed: it was looked up by name or label, or the drawing left a doubt.
# Test system: testosterone propionate-induced prostate hyperplasia
# Assay: Testosterone propionate-induced prostate hyperplasia in rats (Experimental Example 5)
# Type: in vivo, Wistar rats
# Settings: 50 μg/kg once a day for 30 days
# Experimental: Impact on Testosterone Propionate-Induced Prostate Hyperplasia in Rats
# The same experimental materials and animals as in Experimental Example 2 were used. However, fifty (50) 130-150 g male Wistar rats were used. Under ether anesthesia and in sterilized surroundings, both testes of each rat were removed. The rats were then bred for a week after the operation. Next, the rats were randomly divided into 5 groups of 10 rats each. Each group of animals were hyped with 5 mg/kg testosterone propionate dissolved in prepared oil once a day. During the same time period, each group was also given one of the treatments: the control (contrast) group was administered a physiological saline solution; three test groups were administered a dose (1.5, 3 and 6 g/kg) of the extract from Example 9 in a preparation of 1 m/100 g. The positive control (contrast) group was hyped with 50 μg/kg estradiol benzoate in a volume of 0.05 ml/100 g, once a day for 30 days. After the last treatment, the rats were killed and their whole prostate glands were anatomized. The prostate glands were placed in formalin. […] The transverse diameter, diameter and height of the anterior lobes of the prostate glands were measured with a two-foot vernier. […] Finally, the anterior lobes were examined with tectology, and the diameter of the prostate gland cavity and the height of the glandular epithelium cells were measured. […]
compound,measurement,value
"C[C@]12CC[C@@H]3c4ccc(OC(=O)c5ccccc5)cc4CC[C@H]3[C@@H]1CC[C@@H]2O [estradiol benzoate, Estradiol Benzoate]","rat prostate factors, Rear lobe",47.3 −+ 14.4 mg/100 g
